In brackets after ≈: the same amount, converted by molar mass.
Test system: Candida albicans
Test: Antifungal activity against Candida albicans SC5314 assessed as fungal growth inhibition incubated for 2 days by broth serial dilution method
Format: functional
Conditions: SC5314, 48 h, time 2 day

OC(Cn1cncn1)(Cn1cncn1)c1ccc(F)cc1F [FLUCONAZOLE]
MIC: 4 µg/mL (≈ 13.1 µM)

Source: ChEMBL document CHEMBL5390203, “Identification of Obscurolide-Type Metabolites and Antifungal Metabolites from the Termite-Associated Streptomyces neopeptinius BYF101” (2023)
